# Assay results: PMC12929097
# Amino acid sequences for entries named in this document (tags omitted).
# UniProt Q90WI0: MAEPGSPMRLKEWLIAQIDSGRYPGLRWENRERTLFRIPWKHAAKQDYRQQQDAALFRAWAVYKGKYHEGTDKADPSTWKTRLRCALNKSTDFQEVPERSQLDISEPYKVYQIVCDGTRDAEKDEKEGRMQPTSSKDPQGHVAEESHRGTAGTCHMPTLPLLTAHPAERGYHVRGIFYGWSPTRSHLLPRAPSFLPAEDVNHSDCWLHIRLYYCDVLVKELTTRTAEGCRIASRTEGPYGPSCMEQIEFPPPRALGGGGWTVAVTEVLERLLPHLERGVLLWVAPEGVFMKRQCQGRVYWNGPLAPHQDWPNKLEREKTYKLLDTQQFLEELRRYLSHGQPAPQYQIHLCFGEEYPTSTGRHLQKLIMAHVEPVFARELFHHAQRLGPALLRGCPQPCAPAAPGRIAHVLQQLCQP
# No constants are given. Whether binding was seen depends on the method and setting. Binding seen in cells or lysates may run through a third protein. Some results given as binding are weak or reduced against the parent protein; the word gives no strength.
# Molecular target: T1, chicken stimulator of interferon genes (chSTING) (chicken) (UniProt E1C7U0)
# T1 sequence: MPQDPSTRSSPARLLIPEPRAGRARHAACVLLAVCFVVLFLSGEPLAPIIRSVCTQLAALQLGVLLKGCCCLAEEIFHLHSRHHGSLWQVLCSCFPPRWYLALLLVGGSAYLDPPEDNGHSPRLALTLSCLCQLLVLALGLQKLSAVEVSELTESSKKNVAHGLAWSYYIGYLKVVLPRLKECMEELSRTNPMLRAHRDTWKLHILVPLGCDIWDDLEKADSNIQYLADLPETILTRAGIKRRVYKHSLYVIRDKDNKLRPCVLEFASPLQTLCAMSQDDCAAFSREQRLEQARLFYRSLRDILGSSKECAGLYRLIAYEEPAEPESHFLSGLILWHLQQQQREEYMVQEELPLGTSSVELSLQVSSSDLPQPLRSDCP
# Experiment: co-IP; 293T cells co-transfected for 48 h; cleared lysates from a 6-well plate incubated with 1 μg of specific antibody and Protein A/G PLUS-Agarose; eluate and input analysed by Western blotting
substance,measurement,value
chicken interferon regulatory factor 10 (chIRF10) (from UniProt Q90WI0 1-416),binding,binds
